Experimental data as given in patent US20210340217A1, “NOVEL PEPTIDES AND COMBINATION OF PEPTIDES FOR USE IN IMMUNOTHERAPY AGAINST OVARIAN CANCER AND OTHER CANCERS” (Immatics Biotechnologies GmbH, priority 2017, published 2021).
For some of these results: Expression grades refer to the transcript from which the peptide derives; gene names, where given, were looked up from the sequence.

What was measured:
[1] = tested on: ovarian cancer tissue samples; experiment: Identification of tumor associated peptides presented on the cell surface (HLA immunoprecipitation, LC-MS); presentation across tumor types; design: species or system human; details: tumor types on which the peptide was found presented (HLA immunoprecipitation, LC-MS); abbreviations in table footnote
[2] = tested on: source genes in OC tumors compared to a panel of normal tissues; experiment: Expression profiling of genes encoding the peptides (RNAseq), expression scores; design: species or system human; key: very highly over-expressed in OC tumors compared to a panel of normal tissues (+++); highly over-expressed in OC tumors compared to a panel of normal tissues (++); over-expressed in OC tumors compared to a panel of normal tissues (+); details: expression score of source gene

Substance	Peptide Presentation on tumor types [1]	Gene Expression [2]
269: peptide found in MELK (gene looked up) (RLKGDAWVYK; listed as Homo sapiens) [compound 269]	MEL, NHL, OSCAR, UEC	++
247: peptide found in KLK5 (gene looked up) (ARPPWMWVL; listed as Homo sapiens) [compound 247]	BRCA, GBC, HNSCC, OSCAR	+++
273: peptide found in MSLN (gene looked up) (RVNAIPFTY; listed as Homo sapiens) [compound 273]	GBC	++
413: peptide found in IGF2BP3 (gene looked up) (IEALSGKIEL; listed as Homo sapiens) [compound 413]		+++
312: peptide found in HTR3A (gene looked up) (LPYFREFSM; listed as Homo sapiens) [compound 312]		+++
121: peptide found in EYA2 (gene looked up) (VPNQSSESL; listed as Homo sapiens) [compound 121]		+++
131: peptide found in MSLN (gene looked up) (APTEDLKAL; listed as Homo sapiens) [compound 131]		++
309: peptide found in EYA2 (gene looked up) (FPQSQYPQY; listed as Homo sapiens) [compound 309]		+++
270: peptide found in MMP12 (gene looked up) (AVFNPRFYRTY; listed as Homo sapiens) [compound 270]		+++
61: peptide found in CD70 (gene looked up) (YMVHIQVTL; listed as Homo sapiens) [compound 61]		++
26: peptide found in MYO3B (gene looked up) (RISEYLLEK; listed as Homo sapiens) [compound 26]		+++
220: peptide found in FOLR1 (gene looked up) (RMTTQLLLL; listed as Homo sapiens) [compound 220]		++
234: peptide found in MUC16 (gene looked up) (GVATRVDAI; listed as Homo sapiens) [compound 234]		+++
194: peptide found in MAGEA11 (gene looked up) (KEVDPTSHSY; listed as Homo sapiens) [compound 194]		+++
303: peptide found in CLDN6 (gene looked up) (LPMWKVTAF; listed as Homo sapiens) [compound 303]		+++
91: peptide found in ETV1 (gene looked up) (RSLRYYYEK; listed as Homo sapiens) [compound 91]		++
187: peptide found in FOLR1 (gene looked up) (GEAQTRIAW; listed as Homo sapiens) [compound 187]		++
372: peptide found in MYO3B (gene looked up) (IPRNPPPTLL; listed as Homo sapiens) [compound 372]		+++
88: peptide found in CCR5 (gene looked up) (VVHAVFALK; listed as Homo sapiens) [compound 88]		+
122: peptide found in EYA2 (gene looked up) (YPGFPQSQY; listed as Homo sapiens) [compound 122]		+++
198: peptide found in MSLN (gene looked up) (QEAARAAL; listed as Homo sapiens) [compound 198]		++
272: peptide found in MSLN (gene looked up) (RQPERTILRPR; listed as Homo sapiens) [compound 272]		++
